Laboratory results: the supplement of paper PMC8728848
Some of the results follow.

Experiments:
Assay in all cases: glycan array binding signal (z-score within array); higher = stronger binding
Conditions in all cases: glycan notation: IUPAC condensed, linker removed
[1] = biological target: Fuc(a1-2)[GalNAc(a1-3)]Gal(b1-4)GlcNAc(b1-3)Gal(b1-4)GlcNAc(b1-3)Gal(b1-4)GlcNAc
Procedure, shortened: (§1)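 The Consortium for Functional Glycomics database supplied 3228 glycan arrays, of which those lacking an available protein sequence were dropped. The binding signal, a within-array Z-score, was averaged across arrays of the same protein sequence and across linkers. Negative scores can be read as non-binding.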

[2] = biological target: Fuc(a1-2)[GalNAc(a1-3)]Gal(b1-4)GlcNAc(b1-3)GalNAc
Procedure, shortened: as §1

[3] = biological target: Fuc(a1-2)[GalNAc(a1-3)]Gal(b1-4)GlcNAc(b1-3)[Fuc(a1-2)[GalNAc(a1-3)]Gal(b1-4)GlcNAc(b1-6)]GalNAc
Procedure, shortened: as §1

[4] = biological target: Fuc(a1-2)[GalNAc(a1-3)]Gal(b1-4)GlcNAc(b1-6)GalNAc
Procedure, shortened: as §1

[5] = biological target: Fuc(a1-2)[GalNAc(a1-3)]Gal(b1-4)[Fuc(a1-3)]GlcNAc
Procedure, shortened: as §1

[6] = biological target: Fuc(a1-2)[GalNAc(a1-3)]Gal(b1-4)[Fuc(a1-3)]GlcNAc(b1-3)GalNAc
Procedure, shortened: as §1

[7] = biological target: Fuc(a1-2)[GalNAc(a1-4)]Gal(b1-4)GlcNAc
Procedure, shortened: as §1

[8] = biological target: Fuc(a1-2)[GalNAc(b1-3)]Gal
Procedure, shortened: as §1

Fuc(a1-3)GlcNAc = biological target: Fuc(a1-3)GlcNAc
Procedure, shortened: as §1

[9] = biological target: Fuc(a1-3)[Gal(b1-4)]Glc6S
Procedure, shortened: as §1

[10] = biological target: Fuc(a1-3)[Gal(b1-4)]GlcNAc
Procedure, shortened: as §1

[11] = biological target: Fuc(a1-3)[Gal(b1-4)]GlcNAc(b1-2)Man
Procedure, shortened: as §1

[12] = biological target: Fuc(a1-3)[Gal(b1-4)]GlcNAc(b1-2)Man(a1-3)[Fuc(a1-3)[Gal(b1-4)]GlcNAc(b1-2)Man(a1-6)]Man(b1-4)GlcNAc(b1-4)GlcNAc
Procedure, shortened: as §1

[13] = biological target: Fuc(a1-3)[Gal(b1-4)]GlcNAc(b1-2)Man(a1-3)[Fuc(a1-3)[Gal(b1-4)]GlcNAc(b1-2)Man(a1-6)]Man(b1-4)GlcNAc(b1-4)[Fuc(a1-6)]GlcNAc
Procedure, shortened: as §1

[14] = biological target: Fuc(a1-3)[Gal(b1-4)]GlcNAc(b1-3)Gal(b1-3)[Fuc(a1-4)]GlcNAc
Procedure, shortened: as §1

[15] = biological target: Fuc(a1-3)[Gal(b1-4)]GlcNAc(b1-3)Gal(b1-4)[Fuc(a1-3)]GlcNAc
Procedure, shortened: as §1

[16] = biological target: Fuc(a1-3)[Gal(b1-4)]GlcNAc(b1-3)Gal(b1-4)[Fuc(a1-3)]GlcNAc(b1-3)Gal(b1-4)[Fuc(a1-3)]GlcNAc
Procedure, shortened: as §1

[17] = biological target: Fuc(a1-3)[Gal(b1-4)]GlcNAc(b1-3)GalNAc
Procedure, shortened: as §1

[18] = biological target: Fuc(a1-3)[Gal(b1-4)]GlcNAc(b1-6)GalNAc
Procedure, shortened: as §1

[19] = biological target: Fuc(a1-3)[Gal(b1-4)]GlcNAc(b1-6)[Gal(b1-3)GlcNAc(b1-3)]Gal(b1-4)Glc
Procedure, shortened: as §1

[20] = biological target: Fuc(a1-3)[Gal(b1-4)]GlcNAc6S
Procedure, shortened: as §1

[21] = biological target: Fuc(a1-3)[Gal3S(b1-4)]Glc
Procedure, shortened: as §1

[22] = biological target: Fuc(a1-3)[Gal3S(b1-4)]GlcNAc
Procedure, shortened: as §1

B1: PX9961KLbvu-535-38-535 (Bacteroides vulgatus) (protein)
chain: DKAYTDAESYTKGLHKIYSVWALSGQDGSSSSDISGLDAGNTALLRCWWTLQEQPTDEMKNAWNDAWCTEVNYMTWTTNKVEPIEGVYQRCMYIVALVNEFLKNIPNAPESIDKESYIAQARFNRAFAYYVLMDMFALPPFITEKNYSIEPAPLSREDLFNWIEAELNEIKPNLPSPRSEYGVADQAVASALLARMYLNAEIYTGKARYTECINACNEVIKAGYQLADNYADLFKADNGENPDTKKEIIYPIIFDGDKTQSWGMAAIIIGARGAEDKDVLLAHSGVDQGWAGFRATSNLVHLFDFQNDEEPKASEIQDKRGIFYDKGRSIDITSSVSGTFETEGWSVFKFSNLNSNGQPGKNTLWVDTDFPMFRLGDIYLMYAEAVARGGEGSKASAVEYINALRKRAYGDDKHNISENWLEENNFRNLLDERGRELYWEGIRRTDLVRFDLLTSGSYTWDFKGGINTGVGVNKRYNVYPIPVTDLTVNGNLQQNEGY
glycan array binding signal (z-score) [1]: 0.285
glycan array binding signal (z-score) [2]: 0.112
glycan array binding signal (z-score) [3]: 0.033
glycan array binding signal (z-score) [4]: -0.507
glycan array binding signal (z-score) [5]: -0.506
glycan array binding signal (z-score) [6]: -0.162
glycan array binding signal (z-score) [7]: -0.165
glycan array binding signal (z-score) [8]: -0.334
glycan array binding signal (z-score) (Fuc(a1-3)GlcNAc): 0.548
glycan array binding signal (z-score) [9]: 0.76
glycan array binding signal (z-score) [10]: -0.632
glycan array binding signal (z-score) [11]: -0.463
glycan array binding signal (z-score) [12]: -0.44
glycan array binding signal (z-score) [13]: -0.392
glycan array binding signal (z-score) [14]: -0.581
glycan array binding signal (z-score) [15]: 0.453
glycan array binding signal (z-score) [16]: 0.547
glycan array binding signal (z-score) [17]: -0.055
glycan array binding signal (z-score) [18]: 0.051
glycan array binding signal (z-score) [19]: -0.293
glycan array binding signal (z-score) [20]: 0.107
glycan array binding signal (z-score) [21]: 0.909
glycan array binding signal (z-score) [22]: 0.733
